Measurements reported in PubChem BioAssay AID686938 (Drosophila RNAi Screening Center, 2013)
In all, the deposit lists about 23,000 reagents; shown is a random part of those with a known target gene and a result. In the full data, 75 (0.33%) got an active call. 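Raw plate signals without normalisation; calls rest on plate z-scores that were not deposited; ratio present for only 364 wells.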 Entries without a mark were called inactive. A plus sign joins genes that one reagent is predicted to hit. Not given: the dose of the treatment.

- Assay: 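Knock-downs reducing store-operated calcium influx in Drosophila cells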 (primary screen)
- Cell system: Drosophila S2R+ cells
- Reagent: long dsRNA against Drosophila genes, about 0.25 µg dsRNA per well, roughly 10,000 cells
- Duration: 5 days of knock-down before the calcium assay
- Treatment: thapsigargin (SERCA pump blocker) to empty calcium stores; entry signal taken 4 min after adding it
- Read-out: 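Duplicate raw fluo-4 intensities per well from a plate reader, at rest and four minutes after thapsigargin emptied calcium stores; entry-to-rest ratio filled for only some wells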
- Direction: calcium entry signal: higher = stronger calcium signal after store depletion; entry to resting ratio: higher = more calcium entry relative to resting level; resting calcium signal: higher = higher resting calcium signal
- Rule for the call: 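Called when the plate z-score of the entry-to-rest ratio, mean of duplicates, falls below −3; wells with low overall dye signal (Fmax z below −2) or more than five off-targets excluded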
- Calls: active = strongly reduced calcium entry; inactive = no strong reduction

gene	dsRNA	calcium entry signal, replicate 1 (fluorescence units)	calcium entry signal, replicate 2 (fluorescence units)	entry to resting ratio	resting calcium signal, replicate 1 (fluorescence units)	resting calcium signal, replicate 2 (fluorescence units)
CG10874	DRSC00297	2.61e7	2.66e7		1.22e7	1.22e7
ssh	DRSC16730	4.39e7	3.60e7		2.27e7	1.73e7
CG2003	DRSC15411	3.65e7	4.78e7	2.1	1.78e7	1.94e7
hbt	DRSC01310	4.89e7	7.91e7		2.05e7	2.76e7
hbt	DRSC02549	2.73e7	1.60e7		1.35e7	8.33e6
CG5969	DRSC11789	3.23e7	3.43e7		2.71e7	1.85e7
Spn42Dc	DRSC05010	2.61e7	2.42e7		1.15e7	1.10e7
Vajk3	DRSC01883	4.44e7			2.09e7	
CG1316	DRSC08304	3.58e7	3.32e7		1.80e7	1.52e7
Ptip	DRSC10660	4.79e7	4.61e7		2.01e7	1.92e7
Ptip	DRSC11048	5.01e7	4.27e7		2.43e7	2.11e7
CG30447	DRSC05820	2.65e7	6.26e7		1.33e7	2.88e7
CG13526	DRSC04168	4.25e7	5.43e7		2.17e7	2.45e7
nrv3	DRSC03097	8.12e7	3.32e7		4.23e7	1.61e7
CG10462	DRSC02058	4.71e7			2.53e7	
CR43670 + grp + CR43671 + 1 more	DRSC03541	4.68e7			2.33e7	
RNF220	DRSC15652	4.65e7	4.40e7		2.20e7	1.95e7
ng3	DRSC18804	5.93e7	5.74e7	2	2.94e7	2.56e7
Uxs	DRSC10941	4.53e7	4.29e7		2.90e7	1.81e7
CG17199	DRSC15192	3.54e7	3.90e7		4.61e7	1.78e7
CG6052	DRSC10574	4.29e7	5.10e7		2.14e7	2.06e7
Taf8	DRSC20363	2.44e7	1.99e7		1.33e7	9.94e6
HSPC300	DRSC22880	4.63e7	3.15e7		2.26e7	1.40e7
CG12316	DRSC09879	3.52e7	4.33e7		1.60e7	2.90e7
CG15144	DRSC02445	5.21e7	3.27e7		2.10e7	1.58e7
babo	DRSC07581	2.58e7	3.91e7		1.28e7	1.69e7
CG5167	DRSC15728	2.99e7	3.30e7		1.53e7	1.78e7
CG9270	DRSC03182	3.07e7			1.57e7	
Tbc1d22	DRSC15867	4.17e7	3.77e7		1.88e7	1.69e7
CG9302	DRSC03191	4.36e7	1.72e7		2.16e7	9.46e6
CG15382	DRSC00397	2.59e7	2.65e7		1.24e7	1.28e7
MED17	DRSC16889	3.05e7	2.69e7		1.71e7	1.41e7
RpL13A	DRSC12265	1.67e7	1.92e7		1.08e7	1.04e7
Cirl	DRSC07227	3.56e7	2.99e7		1.98e7	1.76e7
Cirl	DRSC21942	3.91e7	7.00e7		1.92e7	3.77e7
Cirl	DRSC23235	4.03e7	4.20e7		2.25e7	1.85e7
Vm34Ca	DRSC03475	3.30e7	2.25e7		1.50e7	1.13e7
prc	DRSC11385	2.88e7	3.85e7		1.58e7	1.80e7
CG15170	DRSC02471	3.50e7	4.62e7		1.81e7	1.86e7
Ndae1	DRSC00975	2.72e7	3.70e7		1.38e7	1.52e7
Ndae1	DRSC02770	3.78e7			2.04e7	
CG44836	DRSC09915	3.91e7	7.64e7		2.17e7	3.06e7
CG17618 (retired record) + CG45049	DRSC16163	4.90e7	6.23e7		2.15e7	2.73e7
CG17618 (retired record) + CG45049	DRSC22054	2.98e7	5.95e7		1.63e7	3.20e7
CG17618 (retired record) + CG45049	DRSC23175	5.50e7	3.04e7		2.58e7	1.32e7
mri	DRSC08259	4.46e7	4.43e7		2.03e7	2.16e7
CG8854	DRSC07288	4.21e7	4.27e7		1.77e7	1.89e7
CG6304	DRSC02948	3.22e7			1.83e7	
grass	DRSC15911	4.12e7	5.56e7		2.17e7	2.51e7
Obp99a	DRSC15303	2.72e7	3.56e7		1.58e7	1.79e7
CG6431	DRSC02956	2.30e7	3.74e7		1.18e7	1.70e7
Rbp6	DRSC09456	4.42e7	3.51e7		2.01e7	1.95e7
Rbp6	DRSC09462	4.48e7	5.16e7		2.11e7	2.70e7
Rbp6	DRSC10072	2.63e7	5.23e7		1.42e7	2.10e7
Rbp6	DRSC10073	2.54e7	5.27e7		1.45e7	1.81e7
Rbp6	DRSC10662	2.75e7	4.73e7		1.48e7	1.80e7
p115	DRSC18813	2.64e7	3.64e7		1.56e7	1.61e7
Su(fu)	DRSC16871	3.35e7	4.37e7		1.51e7	1.90e7
CG6294 + CG6299	DRSC19980	3.66e7	2.60e7		1.91e7	1.32e7
CG6937	DRSC16140	1.94e7	2.03e7		1.19e7	1.02e7
CG14451	DRSC11708	2.10e7	2.97e7		9.75e6	1.47e7
CG32189	DRSC09511	3.64e7	3.72e7		1.64e7	1.95e7
Hsc70-1	DRSC11185	2.26e7	2.27e7		1.29e7	1.14e7
hpo	DRSC06065	3.46e7	2.97e7		1.63e7	1.64e7
ATPsynepsilonL	DRSC14548	2.68e7	2.73e7		1.34e7	1.47e7
Or13a	DRSC20265	4.56e7	2.82e7		2.31e7	1.35e7
RanBP3	DRSC14217	3.66e7	3.97e7		1.86e7	1.82e7
RanBP3	DRSC23153	2.82e7	3.23e7		1.61e7	1.48e7
OstDelta	DRSC06980	3.49e7	3.46e7		1.62e7	1.71e7
l(3)05822	DRSC16202	5.25e7	3.91e7		2.27e7	1.82e7
Slbp	DRSC16863	2.45e7	2.97e7		1.33e7	1.43e7
NijA	DRSC10637	2.14e7	2.34e7		1.09e7	1.02e7
Reps	DRSC02940	3.47e7	5.03e7		1.87e7	2.03e7
CG11741	DRSC14367	4.22e7	2.89e7		2.11e7	1.56e7
CR43999 (retired record)	DRSC14605	4.95e7	4.75e7		2.20e7	2.14e7
